According to PubChem BioAssay AID256 (DTP/NCI, 2004):
The list shows only some results of the screen, not a fair sample: it gathers tests that were run many times, whatever their T/C, doses with no T/C, and many T/C values between a quarter and a half above the control. Other doses and runs of a compound stand elsewhere. T/C gives the treated animals as a percentage of the vehicle group. Some entries give survivors of the animals treated and no T/C: the source holds a T/C of zero for them, seemingly a mark for toxic or unscored doses. Counts of survivors are from the toxicity check (mostly the fifth day) where no day follows; animals may have died later. Schedules are NCI's codes, taken here to give the interval after Q, in days (D) or hours (H), and the number of doses after X. Some entries hold several experiments; the results are listed from low to high. Some survivor counts are full or nearly so, which does not show that the dose was tolerated: survival well below the control is almost never listed, so the zero probably covers shortened survival too. Where survival is the endpoint, this PubChem deposit counts one and a half times the control or more as active, and values a quarter to a half above the control carry no call in these data; other NCI protocols may use other cut-offs. Counts like (3×) say how often a value occurs here. Some T/C values are followed by the survivors on the day toxicity was checked, most often the fifth; where none is given, no animal had died by that day.

Test system: CD2F1 mice, L1210 leukemia ip, survival T/C
Test: NCI In Vivo Anticancer Drug Screen. Data for tumor model L1210 Leukemia (intraperitoneal) in CD2F1 (CDF1) mice
Conditions: higher T/C = longer survival
How it was run: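 Read-out first: treated-group measurement over vehicle-control measurement, expressed as a ratio. Animals bore a transplanted tumor line and were dosed with compound or vehicle.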

[1] = T/C endpoint: mean survival time, dose: 128.0 mg/kg/injection, schedule: Q04DX003 (ip), vehicle: clinical formulation
[2] = T/C endpoint: mean survival time, dose: 128.0 mg/kg/injection, schedule: Q04DX003 (ip), vehicle: saline

## Nc1nc([Se])c2ncn(C3OC(CO)C(O)C3O)c2n1 (configuration not stated)
T/C endpoint: mean survival time, dose: 2.0 mg/kg/injection, schedule: Q01DX009 (ip), vehicle: saline
  T/C: 128, 129, 132, 136 % of control
T/C endpoint: mean survival time, dose: 2.5 mg/kg/injection, schedule: Q01DX005 (ip), vehicle: water
  T/C: 132 % of control
T/C endpoint: mean survival time, dose: 3.12 mg/kg/injection, schedule: Q01DX009 (ip), vehicle: saline
  T/C: 135 % of control
T/C endpoint: mean survival time, dose: 4.0 mg/kg/injection, schedule: Q01DX009 (ip), vehicle: distilled water + Tween-80
  T/C: 134 % of control
T/C endpoint: mean survival time, dose: 4.0 mg/kg/injection, schedule: Q01DX009 (ip), vehicle: saline
  T/C: 130, 132, 139, 143 % of control
T/C endpoint: mean survival time, dose: 4.0 mg/kg/injection, schedule: Q01DX009 (ip), vehicle: water
  T/C: 136 % of control
T/C endpoint: mean survival time, dose: 4.0 mg/kg/injection, schedule: Q04DX003 (ip), vehicle: clinical formulation
  T/C: 129 % of control (2×)
T/C endpoint: mean survival time, dose: 4.0 mg/kg/injection, schedule: Q04DX003 (ip), vehicle: saline
  T/C: 106, 113, 118, 134 % of control
T/C endpoint: mean survival time, dose: 5.0 mg/kg/injection, schedule: Q01DX005 (ip), vehicle: water
  T/C: 125 % of control
T/C endpoint: mean survival time, dose: 6.25 mg/kg/injection, schedule: Q01DX009 (ip), vehicle: saline
  T/C: 132 % of control
T/C endpoint: mean survival time, dose: 8.0 mg/kg/injection, schedule: Q01DX009 (ip), vehicle: distilled water + Tween-80
  T/C: 136 % of control
T/C endpoint: mean survival time, dose: 8.0 mg/kg/injection, schedule: Q01DX009 (ip), vehicle: saline
  T/C: 125, 131, 132, 144 % of control
T/C endpoint: mean survival time, dose: 8.0 mg/kg/injection, schedule: Q01DX009 (ip), vehicle: water
  T/C: 136 % of control
T/C endpoint: mean survival time, dose: 8.0 mg/kg/injection, schedule: Q04DX003 (ip), vehicle: DMSO
  T/C: 132 % of control
T/C endpoint: mean survival time, dose: 8.0 mg/kg/injection, schedule: Q04DX003 (ip), vehicle: clinical formulation
  T/C: 136 and 139 % of control
T/C endpoint: mean survival time, dose: 8.0 mg/kg/injection, schedule: Q04DX003 (ip), vehicle: saline
  T/C: 113, 123, 131, 141 % of control
T/C endpoint: mean survival time, dose: 10.0 mg/kg/injection, schedule: Q01DX005 (ip), vehicle: water
  T/C: 140 % of control
T/C endpoint: mean survival time, dose: 10.0 mg/kg/injection, schedule: Q01DX005 (iv), vehicle: water
  T/C: 136 % of control
T/C endpoint: mean survival time, dose: 12.5 mg/kg/injection, schedule: Q01DX005 (ip), vehicle: saline
  T/C: 144 % of control
T/C endpoint: mean survival time, dose: 12.5 mg/kg/injection, schedule: Q01DX009 (ip), vehicle: saline
  T/C: 132 % of control
T/C endpoint: mean survival time, dose: 16.0 mg/kg/injection, schedule: Q01DX009 (ip), vehicle: saline
  T/C: 131, 134, 137, 150 % of control
T/C endpoint: mean survival time, dose: 16.0 mg/kg/injection, schedule: Q04DX003 (ip), vehicle: DMSO
  T/C: 136 % of control
T/C endpoint: mean survival time, dose: 16.0 mg/kg/injection, schedule: Q04DX003 (ip), vehicle: clinical formulation
  T/C: 126, 137, 143 % of control
T/C endpoint: mean survival time, dose: 16.0 mg/kg/injection, schedule: Q04DX003 (ip), vehicle: saline
  T/C: 125, 128, 139, 145 % of control
T/C endpoint: mean survival time, dose: 20.0 mg/kg/injection, schedule: Q01DX005 (ip), vehicle: water
  T/C: 148 % of control
T/C endpoint: mean survival time, dose: 20.0 mg/kg/injection, schedule: Q01DX005 (iv), vehicle: water
  T/C: 146 % of control
T/C endpoint: mean survival time, dose: 25.0 mg/kg/injection, schedule: Q01DX005 (ip), vehicle: saline
  T/C: 142 % of control
T/C endpoint: mean survival time, dose: 25.0 mg/kg/injection, schedule: Q01DX009 (ip), vehicle: saline
  T/C: 140 % of control
T/C endpoint: mean survival time, dose: 32.0 mg/kg/injection, schedule: Q01DX009 (ip), vehicle: saline
  T/C: 136 % of control
T/C endpoint: mean survival time, dose: 32.0 mg/kg/injection, schedule: Q04DX003 (ip), vehicle: DMSO
  T/C: 145 % of control
T/C endpoint: mean survival time, dose: 32.0 mg/kg/injection, schedule: Q04DX003 (ip), vehicle: clinical formulation
  T/C: 126, 134, 138 % of control
T/C endpoint: mean survival time, dose: 32.0 mg/kg/injection, schedule: Q04DX003 (ip), vehicle: saline
  T/C: 128, 131, 134, 143 % of control
T/C endpoint: mean survival time, dose: 40.0 mg/kg/injection, schedule: Q01DX005 (ip), vehicle: water
  T/C: 141 % of control
T/C endpoint: mean survival time, dose: 50.0 mg/kg/injection, schedule: Q01DX005 (ip), vehicle: saline
  T/C: 142 % of control
T/C endpoint: mean survival time, dose: 50.0 mg/kg/injection, schedule: Q01DX009 (ip), vehicle: saline
  survivor count: 4 of 8
T/C endpoint: mean survival time, dose: 64.0 mg/kg/injection, schedule: Q01DX009 (ip), vehicle: saline
  survivor count: 0 of 6
T/C endpoint: mean survival time, dose: 64.0 mg/kg/injection, schedule: Q04DX003 (ip), vehicle: DMSO
  T/C: 125 % of control [4 of 6 alive]
T/C endpoint: mean survival time, dose: 64.0 mg/kg/injection, schedule: Q04DX003 (ip), vehicle: clinical formulation
  T/C: 127, 128, 129 % of control
T/C endpoint: mean survival time, dose: 64.0 mg/kg/injection, schedule: Q04DX003 (ip), vehicle: saline
  T/C: 125, 126, 130, 140 % of control
T/C endpoint: mean survival time, dose: 128.0 mg/kg/injection, schedule: Q04DX003 (ip), vehicle: DMSO
  T/C: 138 % of control [5 of 6 alive]
[1]
  T/C: 130 % of control [4 of 6 alive]
  survivor count: 2 of 6 and 3 of 6
[2]
  T/C: 117 [5 of 6 alive] and 121 % of control
  survivor count: 2 of 6 and 5 of 6
T/C endpoint: median survival time, dose: 0.25 mg/kg/injection, schedule: Q03HX024 (ip), vehicle: DMSO
  T/C: 125 % of control
T/C endpoint: median survival time, dose: 0.5 mg/kg/injection, schedule: Q03HX016 (ip), vehicle: DMSO
  T/C: 133 % of control
T/C endpoint: median survival time, dose: 0.5 mg/kg/injection, schedule: Q03HX024 (ip), vehicle: DMSO
  T/C: 141 % of control
T/C endpoint: median survival time, dose: 1.0 mg/kg/injection, schedule: Q01DX009 (ip), vehicle: DMSO
  T/C: 137 % of control
T/C endpoint: median survival time, dose: 1.0 mg/kg/injection, schedule: Q03HX008 (ip), vehicle: DMSO
  T/C: 147 % of control
T/C endpoint: median survival time, dose: 2.0 mg/kg/injection, schedule: Q04DX003 (ip), vehicle: DMSO
  T/C: 126 % of control
T/C endpoint: median survival time, dose: 4.0 mg/kg/injection, schedule: Q01DX009 (sc), vehicle: DMSO
  T/C: 125 % of control
T/C endpoint: median survival time, dose: 4.0 mg/kg/injection, schedule: Q04DX003 (ip), vehicle: DMSO
  T/C: 141 % of control
T/C endpoint: median survival time, dose: 8.0 mg/kg/injection, schedule: Q01DX001 (ip), vehicle: DMSO
  T/C: 126 % of control
T/C endpoint: median survival time, dose: 8.0 mg/kg/injection, schedule: Q08DX002 (ip), vehicle: DMSO
  T/C: 126 % of control
T/C endpoint: median survival time, dose: 16.0 mg/kg/injection, schedule: Q01DX001 (ip), vehicle: DMSO
  T/C: 128 % of control [9 of 10 alive]
T/C endpoint: median survival time, dose: 16.0 mg/kg/injection, schedule: Q03HX008 (ip), vehicle: DMSO
  survivor count: 4 of 10
T/C endpoint: median survival time, dose: 16.0 mg/kg/injection, schedule: Q03HX016 (ip), vehicle: DMSO
  survivor count: 4 of 10
T/C endpoint: median survival time, dose: 16.0 mg/kg/injection, schedule: Q03HX024 (ip), vehicle: DMSO
  survivor count: 5 of 10
T/C endpoint: median survival time, dose: 32.0 mg/kg/injection, schedule: Q01DX001 (ip), vehicle: DMSO
  T/C: 136 % of control
T/C endpoint: median survival time, dose: 32.0 mg/kg/injection, schedule: Q01DX001 (sc), vehicle: DMSO
  T/C: 135 % of control
T/C endpoint: median survival time, dose: 32.0 mg/kg/injection, schedule: Q03HX008 (ip), vehicle: DMSO
  survivor count: 0 of 10
T/C endpoint: median survival time, dose: 32.0 mg/kg/injection, schedule: Q03HX016 (ip), vehicle: DMSO
  survivor count: 1 of 10
T/C endpoint: median survival time, dose: 32.0 mg/kg/injection, schedule: Q08DX002 (ip), vehicle: DMSO
  T/C: 132 % of control
T/C endpoint: median survival time, dose: 64.0 mg/kg/injection, schedule: Q01DX001 (ip), vehicle: DMSO
  T/C: 128 % of control
T/C endpoint: median survival time, dose: 64.0 mg/kg/injection, schedule: Q01DX001 (oral), vehicle: DMSO
  T/C: 140 % of control
T/C endpoint: median survival time, dose: 64.0 mg/kg/injection, schedule: Q01DX001 (sc), vehicle: DMSO
  T/C: 130 % of control
T/C endpoint: median survival time, dose: 64.0 mg/kg/injection, schedule: Q03HX008 (ip), vehicle: DMSO
  survivor count: 0 of 10
T/C endpoint: median survival time, dose: 64.0 mg/kg/injection, schedule: Q08DX002 (ip), vehicle: DMSO
  T/C: 133 % of control
T/C endpoint: median survival time, dose: 128.0 mg/kg/injection, schedule: Q01DX001 (oral), vehicle: DMSO
  T/C: 148 % of control
T/C endpoint: median survival time, dose: 128.0 mg/kg/injection, schedule: Q01DX001 (sc), vehicle: DMSO
  T/C: 137 % of control
T/C endpoint: median survival time, dose: 128.0 mg/kg/injection, schedule: Q01DX009 (oral), vehicle: DMSO
  survivor count: 2 of 10
T/C endpoint: median survival time, dose: 128.0 mg/kg/injection, schedule: Q04DX003 (ip), vehicle: DMSO
  survivor count: 5 of 10
T/C endpoint: median survival time, dose: 128.0 mg/kg/injection, schedule: Q08DX002 (ip), vehicle: DMSO
  T/C: 137 % of control [8 of 10 alive]
T/C endpoint: median survival time, dose: 256.0 mg/kg/injection, schedule: Q01DX001 (ip), vehicle: DMSO
  survivor count: 0 of 10
T/C endpoint: median survival time, dose: 256.0 mg/kg/injection, schedule: Q01DX001 (oral), vehicle: DMSO
  survivor count: 6 of 10
T/C endpoint: median survival time, dose: 256.0 mg/kg/injection, schedule: Q01DX001 (sc), vehicle: DMSO
  survivor count: 0 of 10
T/C endpoint: median survival time, dose: 256.0 mg/kg/injection, schedule: Q01DX009 (oral), vehicle: DMSO
  survivor count: 0 of 10
T/C endpoint: median survival time, dose: 256.0 mg/kg/injection, schedule: Q08DX002 (ip), vehicle: DMSO
  survivor count: 1 of 10
T/C endpoint: median survival time, dose: 512.0 mg/kg/injection, schedule: Q01DX001 (ip), vehicle: DMSO
  survivor count: 0 of 10
T/C endpoint: median survival time, dose: 512.0 mg/kg/injection, schedule: Q01DX001 (oral), vehicle: DMSO
  survivor count: 0 of 10
T/C endpoint: median survival time, dose: 512.0 mg/kg/injection, schedule: Q01DX001 (sc), vehicle: DMSO
  survivor count: 0 of 10
T/C endpoint: median survival time, dose: 1024.0 mg/kg/injection, schedule: Q01DX001 (oral), vehicle: DMSO
  survivor count: 0 of 10
